One substance from paper PMC10463480 can be followed below.

The chains behind the UniProt entries cited, without tags or fusion partners.
UniProt P46937: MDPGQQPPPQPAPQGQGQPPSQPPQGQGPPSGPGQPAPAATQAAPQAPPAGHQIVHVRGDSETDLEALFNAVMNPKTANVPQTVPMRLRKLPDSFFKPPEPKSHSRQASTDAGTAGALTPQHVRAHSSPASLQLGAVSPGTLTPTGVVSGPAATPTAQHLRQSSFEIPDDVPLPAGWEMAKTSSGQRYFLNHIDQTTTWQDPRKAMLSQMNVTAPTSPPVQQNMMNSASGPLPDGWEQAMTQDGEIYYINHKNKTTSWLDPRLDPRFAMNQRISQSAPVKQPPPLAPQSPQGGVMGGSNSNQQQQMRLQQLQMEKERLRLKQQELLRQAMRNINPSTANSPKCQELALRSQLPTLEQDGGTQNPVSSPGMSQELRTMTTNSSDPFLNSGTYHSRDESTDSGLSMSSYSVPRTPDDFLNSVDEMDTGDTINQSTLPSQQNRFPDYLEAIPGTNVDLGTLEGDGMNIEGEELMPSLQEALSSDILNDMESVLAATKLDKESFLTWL
UniProt Q5T4S7: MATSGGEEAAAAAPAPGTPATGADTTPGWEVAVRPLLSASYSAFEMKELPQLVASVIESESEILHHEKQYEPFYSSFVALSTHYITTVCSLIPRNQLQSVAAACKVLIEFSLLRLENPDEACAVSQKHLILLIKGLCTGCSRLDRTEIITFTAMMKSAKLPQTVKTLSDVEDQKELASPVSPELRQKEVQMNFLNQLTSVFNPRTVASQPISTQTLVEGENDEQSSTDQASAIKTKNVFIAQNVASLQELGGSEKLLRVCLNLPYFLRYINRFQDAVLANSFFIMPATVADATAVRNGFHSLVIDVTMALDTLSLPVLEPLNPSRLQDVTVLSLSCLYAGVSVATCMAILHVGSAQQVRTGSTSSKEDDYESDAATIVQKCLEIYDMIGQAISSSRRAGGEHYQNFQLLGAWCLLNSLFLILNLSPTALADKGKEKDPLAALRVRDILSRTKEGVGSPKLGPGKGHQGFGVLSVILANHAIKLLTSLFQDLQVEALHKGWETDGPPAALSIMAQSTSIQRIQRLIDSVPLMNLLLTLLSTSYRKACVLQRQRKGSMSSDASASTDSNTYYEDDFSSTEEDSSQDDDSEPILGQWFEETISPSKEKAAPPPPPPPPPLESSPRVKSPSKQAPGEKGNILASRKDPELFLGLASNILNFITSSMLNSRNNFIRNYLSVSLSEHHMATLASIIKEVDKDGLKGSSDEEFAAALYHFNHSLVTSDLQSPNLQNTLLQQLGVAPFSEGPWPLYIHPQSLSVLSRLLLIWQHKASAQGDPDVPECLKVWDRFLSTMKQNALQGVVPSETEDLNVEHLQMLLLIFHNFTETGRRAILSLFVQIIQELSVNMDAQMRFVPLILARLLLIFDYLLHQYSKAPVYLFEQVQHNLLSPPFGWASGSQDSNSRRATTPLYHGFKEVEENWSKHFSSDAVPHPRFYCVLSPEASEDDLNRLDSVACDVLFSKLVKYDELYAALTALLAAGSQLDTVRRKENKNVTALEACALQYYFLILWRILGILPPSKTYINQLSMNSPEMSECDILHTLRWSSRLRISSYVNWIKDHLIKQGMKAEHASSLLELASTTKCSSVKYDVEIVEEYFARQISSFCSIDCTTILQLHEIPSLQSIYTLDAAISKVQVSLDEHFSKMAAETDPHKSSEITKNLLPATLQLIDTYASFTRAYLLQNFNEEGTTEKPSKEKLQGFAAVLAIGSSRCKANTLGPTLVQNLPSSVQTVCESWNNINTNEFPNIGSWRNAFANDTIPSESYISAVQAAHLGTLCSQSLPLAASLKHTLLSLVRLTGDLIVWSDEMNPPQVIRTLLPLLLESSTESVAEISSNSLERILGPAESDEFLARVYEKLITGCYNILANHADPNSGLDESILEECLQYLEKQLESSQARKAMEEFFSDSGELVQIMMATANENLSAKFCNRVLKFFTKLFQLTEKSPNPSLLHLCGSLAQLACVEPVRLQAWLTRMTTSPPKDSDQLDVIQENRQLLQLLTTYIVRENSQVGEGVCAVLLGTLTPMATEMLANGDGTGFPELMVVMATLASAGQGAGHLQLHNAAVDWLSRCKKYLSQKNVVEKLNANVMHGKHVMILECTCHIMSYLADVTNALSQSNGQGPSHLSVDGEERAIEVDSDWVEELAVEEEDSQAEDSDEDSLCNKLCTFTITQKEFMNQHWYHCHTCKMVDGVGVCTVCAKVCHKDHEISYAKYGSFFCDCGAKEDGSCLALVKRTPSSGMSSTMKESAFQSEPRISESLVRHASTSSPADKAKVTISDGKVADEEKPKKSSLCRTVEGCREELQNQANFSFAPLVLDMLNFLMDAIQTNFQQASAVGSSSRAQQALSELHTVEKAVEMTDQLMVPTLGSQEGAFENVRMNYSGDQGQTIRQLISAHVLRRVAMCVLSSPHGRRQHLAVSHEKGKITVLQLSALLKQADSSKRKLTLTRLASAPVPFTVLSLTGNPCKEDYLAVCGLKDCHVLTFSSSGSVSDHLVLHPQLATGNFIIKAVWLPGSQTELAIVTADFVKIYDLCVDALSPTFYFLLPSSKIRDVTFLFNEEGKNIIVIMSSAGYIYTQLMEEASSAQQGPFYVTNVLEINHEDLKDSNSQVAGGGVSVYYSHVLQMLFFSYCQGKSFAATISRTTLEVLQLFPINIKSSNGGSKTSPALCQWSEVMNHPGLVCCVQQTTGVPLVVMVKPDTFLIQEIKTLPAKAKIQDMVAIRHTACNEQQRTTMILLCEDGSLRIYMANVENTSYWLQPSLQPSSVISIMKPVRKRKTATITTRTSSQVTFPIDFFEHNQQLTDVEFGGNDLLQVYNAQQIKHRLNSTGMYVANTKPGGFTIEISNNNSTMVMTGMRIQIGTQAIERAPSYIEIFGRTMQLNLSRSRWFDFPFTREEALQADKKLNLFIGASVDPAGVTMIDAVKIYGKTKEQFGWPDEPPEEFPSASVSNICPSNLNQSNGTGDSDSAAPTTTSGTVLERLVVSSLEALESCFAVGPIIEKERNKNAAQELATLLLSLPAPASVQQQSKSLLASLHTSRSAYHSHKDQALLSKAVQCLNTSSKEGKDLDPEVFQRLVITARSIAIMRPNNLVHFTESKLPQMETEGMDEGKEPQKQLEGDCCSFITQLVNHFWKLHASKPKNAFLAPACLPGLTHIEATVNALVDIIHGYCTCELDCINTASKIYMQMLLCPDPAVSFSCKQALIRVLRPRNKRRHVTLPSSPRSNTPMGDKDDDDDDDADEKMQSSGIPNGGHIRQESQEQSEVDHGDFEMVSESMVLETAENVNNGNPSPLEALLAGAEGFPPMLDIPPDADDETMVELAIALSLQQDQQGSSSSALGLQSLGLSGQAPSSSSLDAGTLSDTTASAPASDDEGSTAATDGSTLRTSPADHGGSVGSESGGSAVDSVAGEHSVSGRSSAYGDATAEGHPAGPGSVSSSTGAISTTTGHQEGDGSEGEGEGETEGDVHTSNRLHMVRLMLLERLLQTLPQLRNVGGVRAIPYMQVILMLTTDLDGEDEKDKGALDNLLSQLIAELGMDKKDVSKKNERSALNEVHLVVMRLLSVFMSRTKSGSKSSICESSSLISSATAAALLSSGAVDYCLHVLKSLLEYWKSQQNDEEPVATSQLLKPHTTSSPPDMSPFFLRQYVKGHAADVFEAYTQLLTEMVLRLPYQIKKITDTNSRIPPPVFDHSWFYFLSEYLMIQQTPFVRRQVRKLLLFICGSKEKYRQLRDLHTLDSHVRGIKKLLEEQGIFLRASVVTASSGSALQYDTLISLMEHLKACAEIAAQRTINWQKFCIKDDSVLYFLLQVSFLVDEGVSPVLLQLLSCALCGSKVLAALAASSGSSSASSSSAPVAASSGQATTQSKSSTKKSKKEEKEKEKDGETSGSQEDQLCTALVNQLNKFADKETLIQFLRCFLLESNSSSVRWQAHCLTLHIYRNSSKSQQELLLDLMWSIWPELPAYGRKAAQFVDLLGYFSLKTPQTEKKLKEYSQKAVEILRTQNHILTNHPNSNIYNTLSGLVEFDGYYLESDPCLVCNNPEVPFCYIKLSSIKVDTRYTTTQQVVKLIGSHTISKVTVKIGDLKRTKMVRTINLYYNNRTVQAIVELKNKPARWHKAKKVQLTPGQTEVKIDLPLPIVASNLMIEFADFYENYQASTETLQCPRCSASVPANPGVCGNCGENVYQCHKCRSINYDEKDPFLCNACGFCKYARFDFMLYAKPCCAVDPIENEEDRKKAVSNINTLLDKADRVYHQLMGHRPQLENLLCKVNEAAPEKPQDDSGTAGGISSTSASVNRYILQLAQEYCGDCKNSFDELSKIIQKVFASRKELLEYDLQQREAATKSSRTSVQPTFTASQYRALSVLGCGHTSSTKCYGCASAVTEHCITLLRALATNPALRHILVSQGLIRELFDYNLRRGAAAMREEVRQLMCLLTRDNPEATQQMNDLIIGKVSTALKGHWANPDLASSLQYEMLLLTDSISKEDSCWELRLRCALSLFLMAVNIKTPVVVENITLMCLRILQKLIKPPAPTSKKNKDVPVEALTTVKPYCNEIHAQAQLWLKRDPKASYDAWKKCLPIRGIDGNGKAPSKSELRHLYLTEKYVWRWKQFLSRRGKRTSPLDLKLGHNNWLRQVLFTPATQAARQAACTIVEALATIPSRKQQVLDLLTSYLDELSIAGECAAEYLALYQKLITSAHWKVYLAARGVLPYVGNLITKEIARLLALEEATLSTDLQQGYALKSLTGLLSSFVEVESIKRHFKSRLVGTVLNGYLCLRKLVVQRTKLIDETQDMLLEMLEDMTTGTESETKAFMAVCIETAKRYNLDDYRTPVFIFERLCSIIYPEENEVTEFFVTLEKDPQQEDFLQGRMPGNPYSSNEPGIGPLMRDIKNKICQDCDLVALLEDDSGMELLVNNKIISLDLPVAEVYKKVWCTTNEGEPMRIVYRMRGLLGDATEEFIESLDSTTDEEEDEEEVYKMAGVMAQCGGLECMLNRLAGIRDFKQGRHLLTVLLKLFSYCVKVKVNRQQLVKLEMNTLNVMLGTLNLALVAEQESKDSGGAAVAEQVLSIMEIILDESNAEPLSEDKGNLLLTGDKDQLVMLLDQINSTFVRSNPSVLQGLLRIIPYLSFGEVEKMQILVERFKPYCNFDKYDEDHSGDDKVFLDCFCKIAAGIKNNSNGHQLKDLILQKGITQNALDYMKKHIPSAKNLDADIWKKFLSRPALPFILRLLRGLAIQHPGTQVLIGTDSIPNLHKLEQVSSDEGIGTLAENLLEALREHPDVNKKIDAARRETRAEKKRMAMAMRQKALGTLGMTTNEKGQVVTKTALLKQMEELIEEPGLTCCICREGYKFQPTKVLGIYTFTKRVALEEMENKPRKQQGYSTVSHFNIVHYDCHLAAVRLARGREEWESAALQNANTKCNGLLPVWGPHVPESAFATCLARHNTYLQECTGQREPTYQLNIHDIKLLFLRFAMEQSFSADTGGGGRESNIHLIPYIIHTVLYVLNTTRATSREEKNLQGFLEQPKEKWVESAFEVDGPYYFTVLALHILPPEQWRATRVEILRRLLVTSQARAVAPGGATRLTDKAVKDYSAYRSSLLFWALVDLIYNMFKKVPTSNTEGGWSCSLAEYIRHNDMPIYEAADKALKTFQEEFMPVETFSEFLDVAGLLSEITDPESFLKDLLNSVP

Results are given in words; binding and its absence hold for the method and conditions named. In cells and extracts the contact can be indirect. Some binding calls cover weakened binding; strength is not graded here.

The target in the test is Yes-associated protein (YAP) (human (endogenous in EndoSCs of IUA patients)) (UniProt P46937). Put plainly: co-IP; lysate of EndoSCs from IUA patients, MG-132 added 4 h before collection; YAP antibody at 4 °C overnight, Protein A + G Agarose beads at 4 °C for 12 h; Western blot. For orientation: In western blotting, separated proteins are transferred to a membrane and probed.

Regarding UBR4 (from UniProt Q5T4S7 1-5183), the binding result is “binds”.
